Source: PubChem BioAssay AID504784 (Drosophila RNAi Screening Center, 2011)

Assay: 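Fly genes whose silencing alters how much lipid cells keep in droplets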 (primary screen)
System: Drosophila Kc167 embryonic cells
Knock-down reagent: long dsRNA against Drosophila genes, about 250 ng dsRNA per well
Timing: 4 days
Challenge: cells fed 400 µM oleic acid bound to BSA
Read-out: 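Microscope images give a droplet-to-nucleus area ratio, taken as log and converted to a screen-wide B-score; higher values mean greater lipid storage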
Reading the numbers: droplet/nuclear area B-score: higher = more stored lipid (overstorage)
The screen tested about 17,000 reagents; below is a random part of those that have a named target and a result. 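Each column is one replicate's B-score; the combined score over replicates was not deposited, so single values may mislead.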 A plus sign joins genes that one reagent is predicted to hit. No sequences are given here.

| Gene | amplicon | droplet/nuclear area B-score, replicate 1 | droplet/nuclear area B-score, replicate 2 | droplet/nuclear area B-score, replicate 3 |
| --- | --- | --- | --- | --- |
| CG17991 | DRSC15294 | -0.14 | 0.453 | – |
| Or23a (Odorant receptor 23a) | DRSC00767 | -0.73 | -0.0432 | – |
| Cpr49Af (Cuticular protein 49Af) | DRSC07202 | -0.73 | -1.28 | – |
| rin (rasputin) | DRSC17045 | 3.21 | 4.06 | – |
| rin (rasputin) | DRSC22997 | 2.08 | -1.82 | – |
| CG11597 | DRSC09847 | 0.11 | 2.19 | – |
| Cox11 (Cytochrome c oxidase copper chaperone COX11) | DRSC22692 | -0.93 | -0.618 | – |
| TfAP-2 (Transcription factor AP-2) | DRSC11601 | 2.85 | -0.343 | – |
| Mst57Dc (Male-specific transcript 57Dc) | DRSC16745 | 2.21 | 1.32 | – |
| Spn38F (Serpin 38F) | DRSC03616 | -0.87 | -0.763 | – |
| CG13038 | DRSC09919 | -0.567 | 0.00294 | – |
| mmm (missing minor mitochondria) | DRSC10208 | -0.1 | -0.82 | – |
| brn (brainiac) | DRSC18746 | 0.632 | – | – |
| CG10252 | DRSC14221 | -0.0913 | 0.643 | – |
| CG32206 | DRSC09602 | 0.22 | -0.0612 | – |
| CG32206 | DRSC10094 | -2.45 | -0.723 | – |
| CG32206 | DRSC10095 | -0.691 | -1.1 | – |
| CG32206 | DRSC10096 | -0.412 | -0.66 | – |
| CG32206 | DRSC11080 | 0.336 | 1.57 | – |
| CG16970 (retired record) | DRSC02549 | -1.34 | -0.744 | – |
| RpL39 (Ribosomal protein L39) | DRSC04651 | 2.89 | 6.27 | – |
| seq (sequoia) | DRSC06863 | 1.95 | 1.96 | – |
| Ppm1 | DRSC08260 | 0.689 | -0.715 | – |
| CG33286 | DRSC11691 | -0.264 | -1.85 | – |
| Vtld + CG42529 | DRSC10102 | 0.241 | -0.878 | – |
| CDase (Ceramidase) | DRSC14932 | -1.53 | -1.37 | – |
| CG5026 | DRSC10470 | 0.642 | – | – |
| Rsbp15 (Radial spoke binding protein 15) | DRSC14176 | 4.77 | 1.07 | – |
| Hmbs (Hydroxymethylbilane synthase) | DRSC08632 | -0.0712 | 0.252 | – |
| CG15036 | DRSC17968 | -1.07 | – | – |
| Hsc70-1 (Heat shock protein 70 cognate 1) | DRSC11185 | 5 | 6.92 | – |
| ScsbetaA (Succinyl-coenzyme A synthetase beta subunit, ADP-forming) | DRSC14446 | -0.1 | -1.07 | – |
| YME1L (YME1 like ATPase) | DRSC04378 | 1.47 | 1.42 | – |
| Or35a (Odorant receptor 35a) | DRSC03389 | -2.35 | 1.04 | – |
| CG3517 | DRSC15492 | 0.408 | -0.0927 | – |
| ich (ichor) | DRSC14448 | 1.9 | -0.987 | – |
| CG18735 | DRSC04312 | -0.555 | -0.345 | – |
| GILT2 (Gamma-interferon-inducible lysosomal thiol reductase 2) | DRSC14196 | 0.598 | 0.0181 | – |
| CG3961 | DRSC10390 | 0.0155 | -1.71 | 1.74 |
| CG3961 | DRSC10391 | 0.359 | 2.22 | – |
| CG14000 + bchs | DRSC02333 | -0.0634 | 0.874 | – |
| CG13725 | DRSC10054 | -0.962 | 1.34 | – |
| slou (slouch) | DRSC17058 | -0.547 | -1.27 | – |
| sktl (skittles) | DRSC04715 | -1.06 | -1.43 | – |
| CG5466 | DRSC15808 | 0.118 | -1.43 | – |
| CG5466 | DRSC23002 | 1.06 | 1.05 | – |

Sorted by “droplet/nuclear area B-score, replicate 1” (high to low): 10 of the entries above.
| Gene | amplicon | droplet/nuclear area B-score, replicate 1 | droplet/nuclear area B-score, replicate 2 | droplet/nuclear area B-score, replicate 3 |
| --- | --- | --- | --- | --- |
| RpL39 (Ribosomal protein L39) | DRSC04651 | 2.89 | 6.27 | – |
| seq (sequoia) | DRSC06863 | 1.95 | 1.96 | – |
| Ppm1 | DRSC08260 | 0.689 | -0.715 | – |
| CG32206 | DRSC11080 | 0.336 | 1.57 | – |
| CG32206 | DRSC09602 | 0.22 | -0.0612 | – |
| CG33286 | DRSC11691 | -0.264 | -1.85 | – |
| CG32206 | DRSC10096 | -0.412 | -0.66 | – |
| CG32206 | DRSC10095 | -0.691 | -1.1 | – |
| CG16970 (retired record) | DRSC02549 | -1.34 | -0.744 | – |
| CG32206 | DRSC10094 | -2.45 | -0.723 | – |

More entries follow:
| Gene | amplicon | droplet/nuclear area B-score, replicate 1 | droplet/nuclear area B-score, replicate 2 | droplet/nuclear area B-score, replicate 3 |
| --- | --- | --- | --- | --- |
| CG15546 | DRSC15084 | 0.639 | -0.219 | – |
| CG15546 | DRSC22831 | 0.966 | 0.162 | – |
| SelR (Selenoprotein R) | DRSC16071 | -1.16 | 2.31 | – |
| Lmpt (Limpet) | DRSC09450 | -0.109 | 0.0167 | -2.18 |
| Lmpt (Limpet) | DRSC09864 | -1.28 | 1.51 | – |
| Lmpt (Limpet) | DRSC09865 | 0.314 | 0.133 | -0.16 |
| Lmpt (Limpet) | DRSC09866 | 0.516 | -1.06 | – |
| Lmpt (Limpet) | DRSC11107 | -0.912 | -0.72 | – |
| Lmpt (Limpet) | DRSC21738 | 0.0662 | -0.827 | – |
| Lmpt (Limpet) | DRSC22921 | 3.06 | 3.64 | – |
| CycT (Cyclin T) | DRSC11124 | -0.0984 | 1.91 | -0.705 |
| CycT (Cyclin T) | DRSC23304 | -0.133 | 0.0269 | – |
| Paf-AHalpha (Platelet-activating factor acetylhydrolase alpha) | DRSC20267 | 0.901 | -0.0671 | – |
| MtnD (Metallothionein D) | DRSC22733 | 0.242 | -0.151 | – |
| CG9451 | DRSC11074 | -0.0309 | -0.00137 | – |
| eIF4E5 (eukaryotic translation initiation factor 4E5) | DRSC10975 | 0.328 | 0.437 | – |
| CG7755 | DRSC07040 | 0.937 | 0.8 | – |
| RpS5b (Ribosomal protein S5b) | DRSC16173 | 0.217 | 0.741 | – |
| CG14624 | DRSC18634 | 0.0182 | -0.432 | – |
| Amy-p (Amylase proximal) | DRSC06786 | 1.85 | -3.14 | – |
| CG11983 | DRSC14458 | 0.708 | 0.469 | – |
| CG32812 | DRSC18478 | 1.91 | 0.114 | – |
| Nep1 (Neprilysin 1) | DRSC18388 | -0.265 | 0.162 | -0.846 |
| Nep1 (Neprilysin 1) | DRSC18389 | 0.541 | 3.74 | – |
| S2P (site-2 protease) | DRSC07311 | 0.81 | -1.15 | – |
| Tango2 (Transport and Golgi organization 2) | DRSC19394 | -0.675 | -0.288 | 0.157 |
| Tango2 (Transport and Golgi organization 2) | DRSC21526 | -0.197 | -0.93 | – |
| APC4 (Anaphase Promoting Complex subunit 4) | DRSC18360 | 0.606 | 1.15 | -0.119 |
| AttB (Attacin-B) | DRSC06734 | -0.895 | -1.84 | – |
| Sk1 (Sphingosine kinase 1) | DRSC19774 | 0.896 | -0.963 | 0.0491 |
| CG42633 | DRSC16061 | 0.294 | 0.0654 | – |
| CG32006 | DRSC21768 | -1.38 | -0.00712 | – |
| deltaCOP (Coat Protein (coatomer) delta) | DRSC18760 | 2.49 | 10.7 | – |
| CG10477 | DRSC09732 | -0.0825 | -0.0861 | – |
| NC2beta (Negative Cofactor 2beta) | DRSC01895 | 0.938 | 0.783 | – |
| asun (asunder) | DRSC16733 | -0.0324 | -4.24 | – |
| SCOT (Succinyl-CoA:3-ketoacid CoA transferase) | DRSC08186 | 0.00334 | -0.521 | – |
